From PubChem BioAssay AID1671190 (National Center for Advancing Translational Sciences (NCATS), 2021)
The campaign covered roughly 580,000 compounds. About 6,100 (1.1%) were called active. The shares of active, inactive and inconclusive entries below differ from those in the screen. The call rests on the fitted dose curve; in most records, active means well fitted inhibition curve with a large enough effect; inconclusive means small, poorly fitted or top-dose-only effect, or another doubt; inactive means no such curve, though single readings can be large or run the other way. A potency beside an inconclusive call is a rough fit, not a confirmed value.

By UniProt entry, the sequences of proteins in these tests, tags left out.
UniProt P18054, whole entry, looked up: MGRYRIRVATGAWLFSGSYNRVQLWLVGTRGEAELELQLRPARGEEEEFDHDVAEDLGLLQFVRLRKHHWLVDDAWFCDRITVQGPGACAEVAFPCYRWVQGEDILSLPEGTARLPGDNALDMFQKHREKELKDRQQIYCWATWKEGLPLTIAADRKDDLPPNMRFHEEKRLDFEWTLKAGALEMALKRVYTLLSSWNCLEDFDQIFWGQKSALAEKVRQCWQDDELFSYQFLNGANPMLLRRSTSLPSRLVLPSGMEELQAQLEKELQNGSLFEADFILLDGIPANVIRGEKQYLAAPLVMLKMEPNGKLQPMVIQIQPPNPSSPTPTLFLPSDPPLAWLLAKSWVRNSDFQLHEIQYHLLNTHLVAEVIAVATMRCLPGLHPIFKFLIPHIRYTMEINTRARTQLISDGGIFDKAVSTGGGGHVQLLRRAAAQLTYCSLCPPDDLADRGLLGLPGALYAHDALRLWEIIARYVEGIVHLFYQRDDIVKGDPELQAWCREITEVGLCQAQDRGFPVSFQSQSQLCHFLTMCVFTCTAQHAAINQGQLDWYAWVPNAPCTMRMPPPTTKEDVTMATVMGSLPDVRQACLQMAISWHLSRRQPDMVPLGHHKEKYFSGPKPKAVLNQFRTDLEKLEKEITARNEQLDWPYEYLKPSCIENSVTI

Target: Polyunsaturated fatty acid lipoxygenase ALOX12 (Homo sapiens) (UniProt P18054)
Assay: Primary qHTS assay for inhibitors of human arachidonate 12S-lipoxygenase (ALOX12): Round 2
Conditions: purified 12hLO, xylenol orange hydroperoxide absorbance; activity change, negative = inhibition: at 108 µM (top of the series) unless noted
In short: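 Hydroperoxide product was detected by ferrous iron/xylenol orange as the 573 to 405 nm absorbance ratio. Arachidonic acid at 40 uM (final) was turned over for 30 min at room temperature by 150 nM human 12hLO, pH 7.0 Hepes buffer, after 15 min compound preincubation.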
On the % scale 0 is the no-effect control and ±100 the full control effect; potency means the concentration at half of the fitted maximal effect.

SMILES | Potency | activity change, negative = inhibition
O=C(COCC(=O)NCc1ccccc1)NCc1ccccc1 | inconclusive: 112 µM [inhibitor, single point] | 
CCOc1ccc(-n2nnnc2SCC(=O)NNC(=O)c2ccco2)cc1 |  | inactive: -8.8%
Clc1ccc(Nc2nc(NCC3CCCO3)nc3c2cnn3-c2ccccc2)cc1 (stereo not given) |  | inactive: 0.11%
C=CCCC(=O)Nc1nc(C)c(-c2csc(Nc3ccc(Cl)cc3)n2)s1 | inconclusive: 50.1 µM [inhibitor, partial curve, poor fit] | 
Cc1ccc(-c2[nH]ncc2CN2C[C@@H](CO)[C@H](c3ccccn3)C2)cc1 |  | inactive: -16.8%
CCCc1noc(-c2ccn3c(CNC(=O)c4ccco4)nnc3c2)n1 | inconclusive: 56.2 µM [inhibitor, single point] | 
O=S(=O)(c1ccc(Nc2ccc(-c3ccc4c(c3)OCCO4)nn2)cc1)N1CCCC1 |  | inactive: 15.6%
COc1cccc(F)c1-c1nc(C)c(C(=O)Nc2cccnc2)s1 | inconclusive: 112 µM [inhibitor, single point] | 
Cc1ccc(S(=O)(=O)Nc2cccc(-c3ccc4nncn4n3)c2)cc1 | inconclusive: 25.1 µM [inhibitor, partial curve, poor fit] | 
CC(=O)Nc1ccc(/C=C/C(=O)N(C)C(C)c2ccc(C)s2)cc1 (stereo not given) | inconclusive: 141 µM [inhibitor, single point] | 
COc1ccc2cc(/C=C3\SC(=S)NC3=O)c(N3CCOCC3)nc2c1 | inconclusive: 44.7 µM [inhibitor, partial curve, poor fit] | 
COc1ccc(-c2sc(Nc3ccccc3)n[n+]2-c2ccc(F)cc2)cc1Br | inconclusive: 44.7 µM [inhibitor, partial curve, poor fit] | 
COc1ccc(/C=C/C(=O)c2ccc3c(c2)OCO3)c(OC)c1 | inconclusive: 44.7 µM [inhibitor, partial curve, poor fit] | 
O=C(COC(=O)c1ccccc1Br)Nc1cccnc1Cl | inconclusive: 89.1 µM [inhibitor, single point] | 
COCCSc1nnc(NC(=O)Cc2cccs2)s1 | inconclusive: 126 µM [inhibitor, partial curve, poor fit] | 
COc1ccc(Cl)cc1NC(=O)c1c(NCc2sccc2C)sc2c1CCCC2 | inconclusive: 126 µM [inhibitor, partial curve, poor fit] | 
O=C1CCCC2=C1C(c1ccccc1F)n1nnnc1N2 (stereo not given) |  | inactive: -7.86%
COCCNC(=O)c1ccc2c(c1)N(C)C(CC(=O)N(C)CC(C)C)CO2 (stereo not given) |  | inactive: -19.6%
Cc1cc[n+](CC(=O)c2cccc([N+](=O)[O-])c2)c2ccccc12 | inconclusive: 25.1 µM [inhibitor, single point] | 
Cc1ccc(C(CNS(=O)(=O)c2ccc(C)cc2)N2CCN(C)CC2)cc1 (stereo not given) | inconclusive: 56.2 µM [inhibitor, partial curve, poor fit] | 
Cc1cccc(CN2CCCN(c3cccc(C(=O)NCc4ccc5c(c4)OCO5)c3)C2=O)c1 |  | inactive: 1.55%
Nc1cc(N2CCN(C(=O)C3CCOCC3)CC(O)C2)ncn1 (stereo not given) |  | inactive: 20.8%

SMILES | Potency | activity change, negative = inhibition
COc1ccc(N2C(=O)CC(Cc3ccccc3)C2=O)cc1 (stereo not given) |  | inconclusive: -31.8% [inhibitor]
COc1ccc(S(=O)(=O)N2CCOCC2)cc1NC(=O)Cc1coc2cc(C)c(C)cc12 | inconclusive: 70.8 µM [inhibitor, partial curve, poor fit] | 
CC(C)NC(=O)C1(C)CCN1C(=O)C1(c2ccccc2)CC1 (stereo not given) |  | inactive: 10%
Cc1nc2c(n1C1CCCCC1)C(=O)c1ccccc1C2=O | inconclusive: 5.01 µM [inhibitor, full curve, poor fit] | 
CCOc1cc(CNCCO)cc(Br)c1OCc1ccccc1Cl | inconclusive: 126 µM [inhibitor, single point] | 
CCCc1cc(C(=O)N2CCC(=O)N(Cc3ccccc3)C(CC)C2)ccn1 (stereo not given) |  | inactive: -3.43%
CCn1cc(C2=NOC(C(=O)Nc3ccccc3C(=O)OC)C2)c(C)n1 (stereo not given) |  | inactive: -8.35%
Cc1ccc2nc(-c3ccccc3)cc(C(=O)NCC(=O)NC3CC3)c2c1 | inconclusive: 50.1 µM [inhibitor, single point] | 
COC(=O)c1c(NC(=O)c2ccncc2)sc(C(=O)Nc2ccccc2)c1C |  | inactive: -6.07%
CC[n+]1ccc(C[n+]2ccccc2)c2ccccc21 | inconclusive: 39.8 µM [inhibitor, partial curve, poor fit] | 
CC1(C(O)(C#CC[N+]2(C)CCCCC2)c2ccccc2)CCCC1 (stereo not given) | inconclusive: 56.2 µM [inhibitor, partial curve, poor fit] | 
O=c1cc(-c2ccc(O)cc2)oc2cc(O)c(C3OC(CO)C(O)C(O)C3O)c(O)c12 (stereo not given) | inconclusive: 31.6 µM [inhibitor, single point] | 
COCCn1c(SCc2ccc(F)cc2)nc2c1c(=O)[nH]c(=O)n2C | inconclusive: 100 µM [inhibitor, single point] | 
CCOC(=O)c1[nH]c2cc3c(cc2c1NC(=O)CN1CCC2(CC1)OCCO2)OCO3 |  | inactive: -5.31%
COCCn1c(=O)c(-c2cn(C)c3ccccc23)nc2cncnc21 |  | inactive: 0%
COc1cc(C(O)c2nc(-c3cccc(C(C)C)c3)cs2)ccc1F (stereo not given) | inconclusive: 89.1 µM [inhibitor, single point] | 
Cc1onc(-c2ccccc2)c1C(=O)N[C@@H]1CCC[C@@H](C(=O)N2CCN(C)CC2)CC(=O)N(C)C1 | inconclusive: 0.631 µM [inhibitor, full curve, poor fit] | 
CSc1cccc(NC(=O)C2C3C=CC4(O3)C2C(=O)N(CCN2CCOCC2)C4C(=O)NC2CCCCC2)c1 (stereo not given) |  | inactive: -12.5%
Cc1oc(-c2ccccc2)cc1C(=O)NC(Cc1c[nH]c2ccccc12)C(=O)O (stereo not given) | inconclusive: 39.8 µM [inhibitor, partial curve, poor fit] | 
COc1ccc(C2CC(c3ccc(Br)cc3)=NN2C(=O)c2cccnc2)cc1 (stereo not given) | inconclusive: 14.1 µM [inhibitor, partial curve] | 
Cc1cc(C)nc(SCCS(=O)Cc2ccc(Cl)cc2)n1 (stereo not given) | inconclusive: 35.5 µM [inhibitor, partial curve, poor fit] | 
Cc1ccnc(NS(=O)(=O)c2cc(-c3cc(C)no3)ccc2C)c1 | inconclusive: 141 µM [inhibitor, partial curve, poor fit] | 

SMILES | Potency | activity change, negative = inhibition
Cc1cc2cc(-c3c(C)noc3C)nc(-c3ccsc3)c2o1 | inconclusive: 28.2 µM [inhibitor, full curve] | 
CC(C)N1CC2CCC(C1)N2Cc1cccc(Cl)c1 | inconclusive: 0.891 µM [inhibitor, full curve, poor fit] | 
COc1ccc(S(=O)(=O)N2N=C(c3cccc(NS(C)(=O)=O)c3)CC2c2ccccc2C)cc1 (stereo not given) |  | inactive: -7.26%
Cc1nc2scc(C)n2c(=O)c1S(=O)(=O)Nc1ccc(N2CCOCC2)cc1 |  | inconclusive: -36.9% [inhibitor]
Cc1ccc(-n2ncc(C(=O)Nc3ccc4c(c3)OCO4)c2C2CCN(C(=O)OC(C)(C)C)CC2)cc1 | inconclusive: 63.1 µM [inhibitor, partial curve, poor fit] | 
COc1ccc(C2=NN(CN3C(=O)C(=O)c4ccccc43)C(c3ccc(OC)cc3)C2)cc1 (stereo not given) | inconclusive: 35.5 µM [inhibitor, partial curve] | 
CCCC(=O)Nc1nc2cc(NS(=O)(=O)c3cc(F)ccc3F)ccc2s1 | inconclusive: 79.4 µM [inhibitor, partial curve, poor fit] | 
Cc1ccc(CN(C)C(=O)c2ccccc2Oc2ccccc2)o1 |  | inactive: -10.3%
O=S(=O)(c1ccccc1)N1CCN(c2ncccn2)CC1 |  | inactive: 12.6%
O=c1c(/C=N/N2CCOCC2)c(C(F)(F)F)[nH]n1-c1ccccc1 | inconclusive: 20 µM [inhibitor, partial curve, poor fit] | 
CC1=C2C(=O)CC(c3ccc(F)cc3)CC2=Nc2ccccc2N1 (stereo not given) | inconclusive: 39.8 µM [inhibitor, partial curve, poor fit] | 
Cc1cc(C)c2c3c(sc2n1)C(=O)N(Cc1ccccc1)CC(=O)N3 | inconclusive: 50.1 µM [inhibitor, partial curve, poor fit] | 
Cc1cc(C)c(C)c(S(=O)(=O)N2CCN(C(=O)Cc3c(C)nn(C)c3C)CC2)c1C | inconclusive: 20 µM [inhibitor, partial curve, poor fit] | 
O=[N+]([O-])c1ccc2nc(-c3ccccc3)[nH]c2c1 | inconclusive: 44.7 µM [inhibitor, partial curve, poor fit] | 
CC(NC(=O)CNC(=O)c1cccs1)c1ccc2ccccc2c1 (stereo not given) | inconclusive: 100 µM [inhibitor, single point] | 
CC(C)(C)NC(=O)NC(=O)CSc1nnc(-c2ccccc2)c(-c2ccccc2)n1 | inconclusive: 50.1 µM [inhibitor, partial curve, poor fit] | 
CN1C(=O)c2ccc(N(C)C)cc2C1=O | inconclusive: 79.4 µM [inhibitor, partial curve, poor fit] | 
C=CCc1ccc(OCCOc2cccc3ccc(C)nc23)c(OC)c1 | inconclusive: 1 µM [inhibitor, full curve] | 
CC(C)Cc1nnc(NC(=O)CCC(=O)Nc2ccc3cn[nH]c3c2)s1 | inconclusive: 15.8 µM [inhibitor, partial curve, poor fit] | 
CCCc1c(C(=O)NC(C)C)nnn1-c1ccc(C)cc1 |  | inactive: 1.97%
NS(=O)(=O)c1cccc(NC(=O)c2cc(=O)c3ccccc3o2)c1 | inconclusive: 126 µM [inhibitor, partial curve, poor fit] | 

In another format: entries from further up
SMILES,Potency,"activity change, negative = inhibition"
COc1ccc(C2CC(c3ccc(Br)cc3)=NN2C(=O)c2cccnc2)cc1 (stereo not given),"inconclusive: 14.1 µM [inhibitor, partial curve]",
Cc1cc(C)nc(SCCS(=O)Cc2ccc(Cl)cc2)n1 (stereo not given),"inconclusive: 35.5 µM [inhibitor, partial curve, poor fit]",
Cc1ccnc(NS(=O)(=O)c2cc(-c3cc(C)no3)ccc2C)c1,"inconclusive: 141 µM [inhibitor, partial curve, poor fit]",
